In this data set the target is T1, hPXR (Homo sapiens) (UniProt O75469).
T1 sequence: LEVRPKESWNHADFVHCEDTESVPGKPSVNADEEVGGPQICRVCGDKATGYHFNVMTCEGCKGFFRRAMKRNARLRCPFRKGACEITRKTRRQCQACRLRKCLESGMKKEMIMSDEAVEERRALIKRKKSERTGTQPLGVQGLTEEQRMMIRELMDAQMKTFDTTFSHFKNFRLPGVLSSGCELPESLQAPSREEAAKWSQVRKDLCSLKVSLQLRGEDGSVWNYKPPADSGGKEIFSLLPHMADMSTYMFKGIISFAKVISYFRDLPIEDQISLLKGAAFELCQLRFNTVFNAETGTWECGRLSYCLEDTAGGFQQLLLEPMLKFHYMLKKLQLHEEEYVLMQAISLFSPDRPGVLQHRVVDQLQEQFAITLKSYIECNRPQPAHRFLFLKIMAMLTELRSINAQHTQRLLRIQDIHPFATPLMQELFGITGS
Put plainly: EMSA. To be noted: hPXR alone without RXR; protein translated in vitro; label: 32P (probe).

A negative result means that nothing was seen under these conditions. Tags and fusion partners may be left off the protein sequences shown.

On to “GATCAATATGAACTCAAAGGAGGTCAGTG (double strand) [CYP3A4 IR6 PXRE]”, for which the binding result is recorded as “no binding”.

These data come from patent US7238491, “Pregnane X receptor method” (SmithKline Beecham Corporation).
